From doi:10.1101/2025.10.31.685804
Like-named read-outs stand apart in the source and are kept apart here. These are yes or no findings as the source states them, for the method shown. In cells and extracts the contact can be indirect. Some entries that bind do so weakly or less than the wild type. For part of these data: Where a sequence is shown, tags or fusion partners need not be part of it.

Sequences of proteins named here, by UniProt entry; tags and fusion partners are left off.
UniProt Q15436: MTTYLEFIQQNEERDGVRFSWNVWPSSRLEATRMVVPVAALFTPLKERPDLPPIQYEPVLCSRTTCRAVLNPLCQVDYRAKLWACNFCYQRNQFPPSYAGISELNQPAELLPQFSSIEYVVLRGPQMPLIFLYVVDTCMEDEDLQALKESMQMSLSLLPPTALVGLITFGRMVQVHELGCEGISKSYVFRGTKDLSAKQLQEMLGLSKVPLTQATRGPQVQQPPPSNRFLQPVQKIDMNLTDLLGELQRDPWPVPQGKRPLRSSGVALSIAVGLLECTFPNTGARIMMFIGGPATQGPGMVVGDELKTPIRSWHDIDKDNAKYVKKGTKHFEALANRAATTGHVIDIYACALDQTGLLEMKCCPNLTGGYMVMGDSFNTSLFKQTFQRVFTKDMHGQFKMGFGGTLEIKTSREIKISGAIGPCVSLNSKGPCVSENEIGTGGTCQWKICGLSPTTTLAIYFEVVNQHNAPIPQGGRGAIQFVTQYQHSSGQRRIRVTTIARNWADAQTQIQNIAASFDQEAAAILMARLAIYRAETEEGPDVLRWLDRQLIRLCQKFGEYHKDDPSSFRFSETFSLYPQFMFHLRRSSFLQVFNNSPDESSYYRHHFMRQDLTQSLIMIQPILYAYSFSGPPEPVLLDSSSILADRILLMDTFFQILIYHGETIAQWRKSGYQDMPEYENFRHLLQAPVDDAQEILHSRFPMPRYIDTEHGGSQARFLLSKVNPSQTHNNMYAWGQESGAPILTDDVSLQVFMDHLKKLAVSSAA
UniProt O15027: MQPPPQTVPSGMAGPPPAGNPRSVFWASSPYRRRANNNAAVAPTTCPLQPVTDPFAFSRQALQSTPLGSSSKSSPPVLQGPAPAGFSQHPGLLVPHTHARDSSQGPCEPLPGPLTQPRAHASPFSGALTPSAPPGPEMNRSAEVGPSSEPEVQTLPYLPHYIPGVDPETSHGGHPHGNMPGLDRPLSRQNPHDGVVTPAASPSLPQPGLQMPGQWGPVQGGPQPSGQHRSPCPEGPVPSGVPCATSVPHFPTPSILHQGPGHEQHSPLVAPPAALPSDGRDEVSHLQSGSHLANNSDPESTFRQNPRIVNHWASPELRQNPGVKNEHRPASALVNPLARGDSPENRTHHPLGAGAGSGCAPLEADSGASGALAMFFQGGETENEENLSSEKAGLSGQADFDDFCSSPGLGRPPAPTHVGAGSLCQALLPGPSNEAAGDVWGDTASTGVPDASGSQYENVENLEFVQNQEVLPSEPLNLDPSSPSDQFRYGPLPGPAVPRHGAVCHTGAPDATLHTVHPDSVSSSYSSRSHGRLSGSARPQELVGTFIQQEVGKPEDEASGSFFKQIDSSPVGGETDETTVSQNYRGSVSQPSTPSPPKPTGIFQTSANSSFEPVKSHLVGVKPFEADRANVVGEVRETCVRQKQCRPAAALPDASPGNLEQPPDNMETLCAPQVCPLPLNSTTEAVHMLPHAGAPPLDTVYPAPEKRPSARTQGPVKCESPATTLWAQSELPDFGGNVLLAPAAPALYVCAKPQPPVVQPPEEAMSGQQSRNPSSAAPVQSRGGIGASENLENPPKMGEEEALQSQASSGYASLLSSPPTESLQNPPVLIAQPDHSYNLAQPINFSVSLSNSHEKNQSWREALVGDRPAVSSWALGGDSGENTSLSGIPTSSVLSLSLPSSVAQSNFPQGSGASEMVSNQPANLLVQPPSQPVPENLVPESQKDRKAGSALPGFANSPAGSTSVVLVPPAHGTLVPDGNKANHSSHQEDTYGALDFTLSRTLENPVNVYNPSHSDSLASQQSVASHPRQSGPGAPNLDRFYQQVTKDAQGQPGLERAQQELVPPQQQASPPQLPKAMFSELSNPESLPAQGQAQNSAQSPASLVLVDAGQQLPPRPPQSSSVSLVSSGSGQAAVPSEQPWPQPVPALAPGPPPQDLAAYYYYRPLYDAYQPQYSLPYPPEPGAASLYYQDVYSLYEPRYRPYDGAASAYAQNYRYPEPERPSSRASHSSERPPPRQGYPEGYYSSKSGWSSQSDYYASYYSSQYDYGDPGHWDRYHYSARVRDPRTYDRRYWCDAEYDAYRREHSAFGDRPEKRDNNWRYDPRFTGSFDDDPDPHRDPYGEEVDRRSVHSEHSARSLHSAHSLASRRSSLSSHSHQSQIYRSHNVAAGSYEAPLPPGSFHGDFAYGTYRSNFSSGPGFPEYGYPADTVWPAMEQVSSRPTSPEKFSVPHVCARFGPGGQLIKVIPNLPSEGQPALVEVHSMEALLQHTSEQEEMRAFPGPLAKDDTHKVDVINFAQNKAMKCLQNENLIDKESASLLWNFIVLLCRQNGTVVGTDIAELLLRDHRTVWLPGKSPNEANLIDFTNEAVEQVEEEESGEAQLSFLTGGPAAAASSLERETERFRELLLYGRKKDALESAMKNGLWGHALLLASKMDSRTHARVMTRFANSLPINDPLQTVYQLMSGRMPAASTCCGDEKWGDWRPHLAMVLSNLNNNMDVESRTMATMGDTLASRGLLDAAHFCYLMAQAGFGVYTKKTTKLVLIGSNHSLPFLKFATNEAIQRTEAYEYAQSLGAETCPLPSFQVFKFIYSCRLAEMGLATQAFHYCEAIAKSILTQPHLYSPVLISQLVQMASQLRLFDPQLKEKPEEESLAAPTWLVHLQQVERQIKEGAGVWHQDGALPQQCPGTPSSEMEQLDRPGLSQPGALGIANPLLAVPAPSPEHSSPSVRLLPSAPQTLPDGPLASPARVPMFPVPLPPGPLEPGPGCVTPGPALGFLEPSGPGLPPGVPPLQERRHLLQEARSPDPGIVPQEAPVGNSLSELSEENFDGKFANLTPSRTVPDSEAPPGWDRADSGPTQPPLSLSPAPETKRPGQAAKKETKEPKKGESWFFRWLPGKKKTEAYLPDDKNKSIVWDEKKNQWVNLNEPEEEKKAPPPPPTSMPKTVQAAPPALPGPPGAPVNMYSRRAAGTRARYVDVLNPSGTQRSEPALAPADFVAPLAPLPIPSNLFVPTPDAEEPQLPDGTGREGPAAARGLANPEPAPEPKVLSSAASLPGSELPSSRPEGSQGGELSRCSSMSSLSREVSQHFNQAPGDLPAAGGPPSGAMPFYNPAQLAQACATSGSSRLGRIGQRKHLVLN
UniProt Q15437: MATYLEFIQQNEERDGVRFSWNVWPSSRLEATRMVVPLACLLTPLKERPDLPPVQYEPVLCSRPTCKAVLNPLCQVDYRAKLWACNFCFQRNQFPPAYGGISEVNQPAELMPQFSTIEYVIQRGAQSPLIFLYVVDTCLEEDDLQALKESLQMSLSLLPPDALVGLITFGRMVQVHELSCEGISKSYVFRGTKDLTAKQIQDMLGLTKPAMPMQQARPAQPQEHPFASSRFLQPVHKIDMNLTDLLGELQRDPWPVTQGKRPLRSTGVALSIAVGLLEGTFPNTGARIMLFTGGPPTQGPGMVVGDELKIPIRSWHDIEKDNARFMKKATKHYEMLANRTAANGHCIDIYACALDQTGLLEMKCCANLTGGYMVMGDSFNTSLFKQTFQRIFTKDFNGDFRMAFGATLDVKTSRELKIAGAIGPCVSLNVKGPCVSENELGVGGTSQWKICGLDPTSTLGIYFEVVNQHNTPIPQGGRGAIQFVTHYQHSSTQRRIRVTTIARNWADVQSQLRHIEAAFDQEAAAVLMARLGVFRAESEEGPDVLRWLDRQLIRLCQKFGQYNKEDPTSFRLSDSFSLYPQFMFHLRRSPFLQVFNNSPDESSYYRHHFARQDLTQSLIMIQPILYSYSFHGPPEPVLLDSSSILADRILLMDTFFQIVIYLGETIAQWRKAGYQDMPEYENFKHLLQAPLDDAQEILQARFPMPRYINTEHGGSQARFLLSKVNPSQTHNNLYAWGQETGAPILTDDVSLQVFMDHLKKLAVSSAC

T1: endogenous SEC31A tagged with FLAG (FLAG-SEC31A knock-in) (human (endogenous in U2OS)), O94979
T1 chain: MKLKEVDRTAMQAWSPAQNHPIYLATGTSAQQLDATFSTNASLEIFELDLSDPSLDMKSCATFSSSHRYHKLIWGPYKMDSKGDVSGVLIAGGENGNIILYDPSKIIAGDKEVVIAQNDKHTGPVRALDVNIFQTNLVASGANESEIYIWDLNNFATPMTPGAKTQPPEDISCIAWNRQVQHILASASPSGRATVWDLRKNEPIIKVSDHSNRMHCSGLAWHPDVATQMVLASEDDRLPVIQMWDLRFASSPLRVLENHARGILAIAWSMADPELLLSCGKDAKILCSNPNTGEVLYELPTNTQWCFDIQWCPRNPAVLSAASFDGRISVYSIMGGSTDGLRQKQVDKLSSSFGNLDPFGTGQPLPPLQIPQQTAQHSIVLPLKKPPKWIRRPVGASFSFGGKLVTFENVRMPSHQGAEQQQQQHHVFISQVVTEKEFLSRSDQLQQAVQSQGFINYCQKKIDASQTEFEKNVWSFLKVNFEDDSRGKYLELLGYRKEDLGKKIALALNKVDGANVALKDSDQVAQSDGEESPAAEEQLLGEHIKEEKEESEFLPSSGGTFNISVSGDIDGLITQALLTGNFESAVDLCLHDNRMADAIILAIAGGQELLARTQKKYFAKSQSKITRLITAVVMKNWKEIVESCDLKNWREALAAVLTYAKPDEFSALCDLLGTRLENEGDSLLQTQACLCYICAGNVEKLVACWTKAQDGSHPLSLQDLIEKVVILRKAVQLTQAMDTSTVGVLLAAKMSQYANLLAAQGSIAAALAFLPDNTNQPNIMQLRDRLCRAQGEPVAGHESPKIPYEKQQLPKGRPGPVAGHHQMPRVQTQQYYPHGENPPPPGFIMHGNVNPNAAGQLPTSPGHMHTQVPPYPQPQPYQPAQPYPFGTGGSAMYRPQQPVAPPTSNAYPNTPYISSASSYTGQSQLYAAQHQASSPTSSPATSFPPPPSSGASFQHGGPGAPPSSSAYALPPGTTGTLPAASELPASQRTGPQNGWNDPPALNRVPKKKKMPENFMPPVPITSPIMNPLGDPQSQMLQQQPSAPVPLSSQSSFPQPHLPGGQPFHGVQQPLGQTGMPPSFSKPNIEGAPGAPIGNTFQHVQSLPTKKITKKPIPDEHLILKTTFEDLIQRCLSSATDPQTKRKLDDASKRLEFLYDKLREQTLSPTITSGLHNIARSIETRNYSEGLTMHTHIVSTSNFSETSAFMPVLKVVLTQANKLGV

T2: EYFP-SEC31A wild-type (UniProt O94979)
T2 sequence: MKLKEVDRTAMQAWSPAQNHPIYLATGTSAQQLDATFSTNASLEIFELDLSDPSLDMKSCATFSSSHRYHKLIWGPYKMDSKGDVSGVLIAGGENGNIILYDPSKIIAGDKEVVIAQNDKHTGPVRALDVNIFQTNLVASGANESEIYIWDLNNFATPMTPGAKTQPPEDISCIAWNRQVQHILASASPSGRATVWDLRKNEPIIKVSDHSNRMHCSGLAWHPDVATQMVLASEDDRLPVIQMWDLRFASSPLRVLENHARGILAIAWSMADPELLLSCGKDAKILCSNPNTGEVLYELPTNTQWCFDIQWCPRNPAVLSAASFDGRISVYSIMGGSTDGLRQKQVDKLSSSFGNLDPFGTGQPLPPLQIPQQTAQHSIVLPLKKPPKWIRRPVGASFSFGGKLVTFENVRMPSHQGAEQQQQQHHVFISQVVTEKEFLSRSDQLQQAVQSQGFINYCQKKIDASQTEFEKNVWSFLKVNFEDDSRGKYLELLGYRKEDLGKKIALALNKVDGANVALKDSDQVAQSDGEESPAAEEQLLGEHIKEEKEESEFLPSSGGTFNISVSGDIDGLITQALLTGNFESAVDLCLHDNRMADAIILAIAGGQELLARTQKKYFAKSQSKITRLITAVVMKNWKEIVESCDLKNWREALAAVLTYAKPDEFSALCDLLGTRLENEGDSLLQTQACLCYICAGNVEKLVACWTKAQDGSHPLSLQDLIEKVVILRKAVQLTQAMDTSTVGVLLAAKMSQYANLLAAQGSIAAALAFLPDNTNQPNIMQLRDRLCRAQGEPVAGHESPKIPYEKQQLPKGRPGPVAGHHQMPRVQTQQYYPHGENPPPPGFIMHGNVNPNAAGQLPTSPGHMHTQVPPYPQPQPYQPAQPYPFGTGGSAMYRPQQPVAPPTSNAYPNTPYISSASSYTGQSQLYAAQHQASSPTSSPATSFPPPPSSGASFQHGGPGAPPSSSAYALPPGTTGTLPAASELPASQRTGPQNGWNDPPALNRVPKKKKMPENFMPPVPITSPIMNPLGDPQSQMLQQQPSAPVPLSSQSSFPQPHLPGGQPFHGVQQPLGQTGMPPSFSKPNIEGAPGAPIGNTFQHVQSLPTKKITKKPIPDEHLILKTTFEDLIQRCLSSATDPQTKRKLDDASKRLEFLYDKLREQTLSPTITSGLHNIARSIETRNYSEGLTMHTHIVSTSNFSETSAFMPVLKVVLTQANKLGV

T3: HA-SEC13 (UniProt P55735)
T3 sequence: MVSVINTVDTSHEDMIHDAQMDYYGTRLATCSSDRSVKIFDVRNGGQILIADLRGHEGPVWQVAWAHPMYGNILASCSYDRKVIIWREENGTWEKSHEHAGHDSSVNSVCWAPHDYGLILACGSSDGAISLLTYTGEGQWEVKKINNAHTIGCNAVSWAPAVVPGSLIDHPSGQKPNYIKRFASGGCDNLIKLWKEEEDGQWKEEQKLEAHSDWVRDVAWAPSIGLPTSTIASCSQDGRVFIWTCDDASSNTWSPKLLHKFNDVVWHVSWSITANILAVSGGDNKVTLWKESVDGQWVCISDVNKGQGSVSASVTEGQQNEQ


Key:
Experiment in all cases: co-IP
[1] = target: T1, endogenous SEC31A tagged with FLAG …; conditions: remark: other sources report otherwise
EYFP-SEC31A wild-type [2] = target: T2, EYFP-SEC31A wild-type
SEC23A = SEC23A (UniProt Q15436)
HA-SEC13 = target: T3, HA-SEC13
[3] = target: modified EGFP (mEGFP)-tagged SEC16A (UniProt O15027)
SEC23B = SEC23B (UniProt Q15437)
EYFP-SEC31A wild-type [4] = target: T2, EYFP-SEC31A wild-type; remark: listed apart in the source
[5] = target: modified EGFP (mEGFP)-tagged SEC16A (UniProt O15027); remark: listed apart in the source

binding [1] | binding (EYFP-SEC31A wild-type [2]) | binding (SEC23A) | binding (HA-SEC13) | binding [3] | binding (SEC23B) | binding (EYFP-SEC31A wild-type [4]) | binding [5] | Binder
binds |  |  |  |  |  |  |  | endogenous ULK1, O75385 1-1050 (enzyme) MEPGRGGTETVGKFEFSRKDLIGHGAFAVVFKGRHREKHDLEVAVKCINKKNLAKSQTLLGKEIKILKELKHENIVALYDFQEMANSVYLVMEYCNGGDLADYLHAMRTLSEDTIRLFLQQIAGAMRLLHSKGIIHRDLKPQNILLSNPAGRRANPNSIRVKIADFGFARYLQSNMMAATLCGSPMYMAPEVIMSQHYDGKADLWSIGTIVYQCLTGKAPFQASSPQDLRLFYEKNKTLVPTIPRETSAPLRQLLLALLQRNHKDRMDFDEFFHHPFLDASPSVRKSPPVPVPSYPSSGSGSSSSSSSTSHLASPPSLGEMQQLQKTLASPADTAGFLHSSRDSGGSKDSSCDTDDFVMVPAQFPGDLVAEAPSAKPPPDSLMCSGSSLVASAGLESHGRTPSPSPPCSSSPSPSGRAGPFSSSRCGASVPIPVPTQVQNYQRIERNLQSPTQFQTPRSSAIRRSGSTSPLGFARASPSPPAHAEHGGVLARKMSLGGGRPYTPSPQVGTIPERPGWSGTPSPQGAEMRGGRSPRPGSSAPEHSPRTSGLGCRLHSAPNLSDLHVVRPKLPKPPTDPLGAVFSPPQASPPQPSHGLQSCRNLRGSPKLPDFLQRNPLPPILGSPTKAVPSFDFPKTPSSQNLLALLARQGVVMTPPRNRTLPDLSEVGPFHGQPLGPGLRPGEDPKGPFGRSFSTSRLTDLLLKAAFGTQAPDPGSTESLQEKPMEIAPSAGFGGSLHPGARAGGTSSPSPVVFTVGSPPSGSTPPQGPRTRMFSAGPTGSASSSARHLVPGPCSEAPAPELPAPGHGCSFADPITANLEGAVTFEAPDLPEETLMEQEHTEILRGLRFTLLFVQHVLEIAALKGSASEAAGGPEYQLQESVVADQISLLSREWGFAEQLVLYLKVAELLSSGLQSAIDQIRAGKLCLSSTVKQVVRRLNELYKASVVSCQGLSLRLQRFFLDKQRLLDRIHSITAERLIFSHAVQMVQSAALDEMFQHREGCVPRYHKALLLLEGLQHMLSDQADIENVTKCKLCIERRLSALLTGICA
 | binds | binds | no binding | binds | binds | binds |  | wild-type ULK1 (Unc-51-like kinase 1) (enzyme, UniProt O70405 1-1051) MEPGRGGVETVGKFEFSRKDLIGHGAFAVVFKGRHREKHDLEVAVKCINKKNLAKSQTLLGKEIKILKELKHENIVALYDFQEMANSVYLVMEYCNGGDLADYLHTMRTLSEDTVRLFLQQIAGAMRLLHSKGIIHRDLKPQNILLSNPGGRRANPSNIRVKIADFGFARYLQSNMMAATLCGSPMYMAPEVIMSQHYDGKADLWSIGTIVYQCLTGKAPFQASSPQDLRLFYEKNKTLVPAIPRETSAPLRQLLLALLQRNHKDRMDFDEFFHHPFLDASTPIKKSPPVPVPSYPSSGSGSSSSSSSASHLASPPSLGEMPQLQKTLTSPADAAGFLQGSRDSGGSSKDSCDTDDFVMVPAQFPGDLVAEAASAKPPPDSLLCSGSSLVASAGLESHGRTPSPSPTCSSSPSPSGRPGPFSSNRYGASVPIPVPTQVHNYQRIEQNLQSPTQQQTARSSAIRRSGSTTPLGFGRASPSPPSHTDGAMLARKLSLGGGRPYTPSPQVGTIPERPSWSRVPSPQGADVRVGRSPRPGSSVPEHSPRTTGLGCRLHSAPNLSDFHVVRPKLPKPPTDPLGATFSPPQTSAPQPCPGLQSCRPLRGSPKLPDFLQRSPLPPILGSPTKAGPSFDFPKTPSSQNLLTLLARQGVVMTPPRNRTLPDLSEASPFHGQQLGSGLRPAEDTRGPFGRSFSTSRITDLLLKAAFGTQASDSGSTDSLQEKPMEIAPSAGFGGTLHPGARGGGASSPAPVVFTVGSPPSGATPPQSTRTRMFSVGSSSSLGSTGSSSARHLVPGACGEAPELSAPGHCCSLADPLAANLEGAVTFEAPDLPEETLMEQEHTETLHSLRFTLAFAQQVLEIAALKGSASEAAGGPEYQLQESVVADQISQLSREWGFAEQLVLYLKVAELLSSGLQTAIDQIRAGKLCLSSTVKQVVRRLNELYKASVVSCQGLSLRLQRFFLDKQRLLDGIHGVTAERLILSHAVQMVQSAALDEMFQHREGCVPRYHKALLLLEGLQHTLTDQADIENIAKCKLCIERRLSALLSGVYA
 |  |  |  |  |  | binds | binds | ULK1-4SA mutant (AMPK phosphorylation-resistant) (enzyme, UniProt O70405 1-1051) MEPGRGGVETVGKFEFSRKDLIGHGAFAVVFKGRHREKHDLEVAVKCINKKNLAKSQTLLGKEIKILKELKHENIVALYDFQEMANSVYLVMEYCNGGDLADYLHTMRTLSEDTVRLFLQQIAGAMRLLHSKGIIHRDLKPQNILLSNPGGRRANPSNIRVKIADFGFARYLQSNMMAATLCGSPMYMAPEVIMSQHYDGKADLWSIGTIVYQCLTGKAPFQASSPQDLRLFYEKNKTLVPAIPRETSAPLRQLLLALLQRNHKDRMDFDEFFHHPFLDASTPIKKSPPVPVPSYPSSGSGSSSSSSSASHLASPPSLGEMPQLQKTLTSPADAAGFLQGSRDSGGSSKDSCDTDDFVMVPAQFPGDLVAEAASAKPPPDSLLCSGSSLVASAGLESHGRTPSPSPTCSSSPSPSGRPGPFSSNRYGASVPIPVPTQVHNYQRIEQNLQSPTQQQTARSSAIRRSGATTPLGFGRASPSPPSHTDGAMLARKLSLGGGRPYTPSPQVGTIPERPSWSRVPSPQGADVRVGRSPRPGSSVPEHSPRTTGLGCRLHAAPNLSDFHVVRPKLPKPPADPLGATFSPPQTSAPQPCPGLQSCRPLRGSPKLPDFLQRSPLPPILGSPTKAGPSFDFPKTPASQNLLTLLARQGVVMTPPRNRTLPDLSEASPFHGQQLGSGLRPAEDTRGPFGRSFSTSRITDLLLKAAFGTQASDSGSTDSLQEKPMEIAPSAGFGGTLHPGARGGGASSPAPVVFTVGSPPSGATPPQSTRTRMFSVGSSSSLGSTGSSSARHLVPGACGEAPELSAPGHCCSLADPLAANLEGAVTFEAPDLPEETLMEQEHTETLHSLRFTLAFAQQVLEIAALKGSASEAAGGPEYQLQESVVADQISQLSREWGFAEQLVLYLKVAELLSSGLQTAIDQIRAGKLCLSSTVKQVVRRLNELYKASVVSCQGLSLRLQRFFLDKQRLLDGIHGVTAERLILSHAVQMVQSAALDEMFQHREGCVPRYHKALLLLEGLQHTLTDQADIENIAKCKLCIERRLSALLSGVYA
